This note sets out measurements from the supplement of paper PMC8256030.

Values joined by “and” are separate entries in the source; they are usually repeats but may differ in a detail not shown here. Equal entries are not always repeated. Structures can show the parent of a compound that is named as a salt. This is one part of the list. Repeats in this data set agree poorly, so a single value says little.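 HEK293T cells were given each compound shortly before transfection with a reporter in which red mCherry is followed by the SARS-CoV-2 frameshift element and then GFP in the −1 frame, so GFP appears only after frameshifting.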

In this assay the test system is SARS-CoV-2 -1 PRF reporter mCherry-FSE-GFP(-1). As to the kind of experiment: percent effect, decrease of GFP/mCherry ratio (-1 PRF reporter) relative to controls; higher = stronger frameshift inhibition. Particulars: 10 µM; 24 h; HEK293T.
In the case of `Clc1ccccc1CN1CCc2sccc2C1`, the percent effect came out at 2.77%.

In the case of `COc1ccnc(C[S+]([O-])c2nc3cc(OC(F)F)ccc3[nH]2)c1OC` (stereo unspecified) [Pantoprazole], the percent effect was 3.07% and 4.48%. In the case of `CNCCC(Oc1ccccc1OC)c1ccccc1` (stereo unspecified) [nisoxetine], the percent effect is 1.95%. For the compound `N[C@@H]1CCCCN(c2c(F)cc3c(=O)c(C(=O)O)cn(C4CC4)c3c2Cl)C1` [Besifloxacin], the percent effect is -1.83%. Turning to `COc1cc(C2Oc3cc([C@H]4Oc5cc(O)cc(O)c5C(=O)[C@@H]4O)ccc3OC2CO)ccc1O` (stereo partly specified) [silibinin], the percent effect was -2.45%. Regarding `COc1cc(C(=O)N2CCOCC2)cc(OC)c1OC` [trimetozine], the percent effect was -1.89%. In the case of `Cc1[nH+]cc(COP(=O)([O-])[O-])c(CN(CCN(CC(=O)[O-])Cc2c(COP(=O)([O-])O)c[nH+]c(C)c2O)CC(=O)[O-])c1O.[Mn].[Na+].[Na+].[Na+]` it was -0.311%.

As for `CCCOc1ccccc1-c1nc2[nH]nnc2c(=O)[nH]1` [Zaprinast], the percent effect amounted to 3.5%. With `COC(=O)Nc1nc2cc([S+]([O-])c3ccccc3)ccc2[nH]1` (stereo unspecified) [oxfendazole], the percent effect is -1.37%. For the compound `N=C(NCCCCCCNC(=N)NC(=N)Nc1ccc(Cl)cc1)NC(=N)Nc1ccc(Cl)cc1` [Chlorhexidine], the percent effect was -13.3%. On to `Cc1cc(C)nc(NS(=O)(=O)c2ccc(N)cc2)n1` [sulfadimidine], for which the percent effect was -5.83%. Take `C=C1CCN([C@H](C)[C@](O)(Cn2cncn2)c2ccc(F)cc2F)CC1` [Efinaconazole]: the percent effect is -0.113%. For `CN1C(C(=O)Nc2ccccn2)=C(O)c2ccccc2S1(=O)=O` [piroxicam], the percent effect was -4.8%. For the compound `NCc1ccccc1CC(=O)N[C@@H]1C(=O)N2C(C(=O)O)=C(CSc3nnnn3CC(=O)O)CS[C@H]12` [Ceforanide], the percent effect was -0.442%. For the compound `CC[C@@H]([C@H](C)O)n1ncn(-c2ccc(N3CCN(c4ccc(OC[C@@H]5CO[C@@](Cn6cncn6)(c6ccc(F)cc6F)C5)cc4)CC3)cc2)c1=O` [Posaconazole], the percent effect was -5.12%. In the case of `CC(C)Oc1ccc2c(=O)c(-c3ccccc3)coc2c1`, the percent effect was -2.56%. As for `C1CNCCN1`, the percent effect is -3.6%. Take `C=CC[N+]1([C@H]2C[C@H]3[C@@H]4CC[C@H]5C[C@H](O)[C@@H](N6CCOCC6)C[C@]5(C)[C@H]4CC[C@]3(C)[C@H]2OC(C)=O)CCCC1` [rocuronium bromide]: the percent effect was -0.0577%.

Consider `NC(=O)C(=O)N/N=C/c1ccc([N+](=O)[O-])o1` [nifuraldezone], for which the percent effect was -9.15%.

With `O=S(=O)([O-])NC1CCCCC1.[Na+]` [sodium cyclamate], the percent effect was determined as 0.934%. Consider `N[C@@H]1C[C@H]1c1ccccc1.N[C@H]1C[C@@H]1c1ccccc1` [Tranylcypromine], for which the percent effect is -4.74% and 5.22%.

For the compound `CC/N=C(\NCC)NCCCC[C@H](NC(=O)[C@H](CC(C)C)NC(=O)[C@@H](CCCCN/C(=N/CC)NCC)NC(=O)[C@H](Cc1ccc(O)cc1)NC(=O)[C@H](CO)NC(=O)[C@@H](Cc1cccnc1)NC(=O)[C@@H](Cc1ccc(Cl)cc1)NC(=O)[C@@H](Cc1ccc2ccccc2c1)NC(C)=O)C(=O)N1CCC[C@H]1C(=O)N[C@H](C)C(N)=O` [Ganirelix], the percent effect was -6.06%. As for `Nc1nc(F)nc2c1ncn2[C@@H]1O[C@H](COP(=O)(O)O)[C@@H](O)[C@@H]1O`, the percent effect is 1.33%. `CC(=O)SC[C@@H](C)C(=O)N1CCC[C@H]1C(=O)N[C@@H](Cc1ccccc1)C(=O)O` [alacepril]: the percent effect came out at 5.09%.

As for `Cc1ccccc1OCC(O)CNCCOc1ccc(C(N)=O)cc1` (stereo unspecified) [tolamolol], the percent effect is -2.9%. Regarding `CC[C@@]1(O)C(=O)OCc2c1cc1n(c2=O)Cc2cc3c(CN(C)C)c(O)ccc3nc2-1` [Topotecan·HCl], the percent effect is -2.02%. In the case of `COc1ccc(-c2cc(=S)ss2)cc1` [Anethole-trithione], the percent effect was determined as 2.49%. As to `CN[C@H](CC(C)C)C(=O)N[C@H]1C(=O)N[C@@H](CC(N)=O)C(=O)N[C@H]2C(=O)N[C@H]3C(=O)N[C@H](C(=O)N[C@H](C(=O)O)c4cc(O)cc(O)c4-c4cc3ccc4O)[C@H](O)c3ccc(c(Cl)c3)Oc3cc2cc(c3O[C@@H]2O[C@H](CO)[C@@H](O)[C@H](O)[C@H]2O[C@H]2C[C@](C)(N)[C@H](O)[C@H](C)O2)Oc2ccc(cc2Cl)[C@H]1O` [Vancocin], the percent effect was -5.58%. In the case of `CCCCCCCCCCCCCCCC(=O)NCCC[N+](C)(C)CC(=O)[O-]` [pendecamaine] it was 1.23%; in that of `CC1CC(OC(=O)C(O)c2ccccc2)CC(C)(C)C1` (stereo unspecified) [cyclandelate], -3.66%. Consider `O=C1c2ccccc2S(=O)(=O)N1CCCN1CCN(c2ncccn2)CC1` [revospirone], for which the percent effect is 2.84%.
